No constants are given. Whether binding was seen depends on the method and setting. Binding seen in cells or lysates may run through a third protein. These calls come from enrichment with a bait or labelling near it, and not all partners need be listed.
Target: T1, Satb1 (Special AT-rich Binding Protein 1) (mouse (endogenous in thymocytes)) (UniProt Q60611)
T1 sequence: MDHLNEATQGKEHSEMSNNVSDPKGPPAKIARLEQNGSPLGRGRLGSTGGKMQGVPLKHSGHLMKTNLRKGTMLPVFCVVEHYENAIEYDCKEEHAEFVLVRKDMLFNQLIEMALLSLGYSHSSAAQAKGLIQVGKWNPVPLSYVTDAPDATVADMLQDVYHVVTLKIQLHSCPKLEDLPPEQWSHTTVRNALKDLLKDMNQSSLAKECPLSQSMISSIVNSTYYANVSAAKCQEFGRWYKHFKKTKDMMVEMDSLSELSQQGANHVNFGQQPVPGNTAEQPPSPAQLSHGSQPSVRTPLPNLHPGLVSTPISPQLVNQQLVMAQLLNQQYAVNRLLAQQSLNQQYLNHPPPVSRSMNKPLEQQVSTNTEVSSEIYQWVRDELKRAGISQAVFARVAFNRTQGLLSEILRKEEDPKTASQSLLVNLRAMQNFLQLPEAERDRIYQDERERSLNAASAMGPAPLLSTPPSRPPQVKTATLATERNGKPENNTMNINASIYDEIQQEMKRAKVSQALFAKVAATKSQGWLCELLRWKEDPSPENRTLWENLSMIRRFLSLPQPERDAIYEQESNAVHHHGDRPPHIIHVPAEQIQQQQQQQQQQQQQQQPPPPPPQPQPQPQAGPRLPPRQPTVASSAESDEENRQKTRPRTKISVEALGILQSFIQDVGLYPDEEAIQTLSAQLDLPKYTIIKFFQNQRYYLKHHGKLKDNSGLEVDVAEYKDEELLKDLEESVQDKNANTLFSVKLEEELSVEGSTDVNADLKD
Assay: affinity purification with mass spectrometry

B1: Smc1a (cohesin subunit) (protein, UniProt Q9CU62 1-1233)
chain: MGFLKLIEIENFKSYKGRQIIGPFQRFTAIIGPNGSGKSNLMDAISFVLGEKTSNLRVKTLRDLIHGAPVGKPAANRAFVSMVYSEEGAEDRTFARVIVGGSSEYKINNKVVQLHEYSEELEKLGILIKARNFLVFQGAVESIAMKNPKERTALFEEISRSGELAQEYDKRKKEMVKAEEDTQFNYHRKKNIAAERKEAKQEKEEADRYQRLKDEVVRAQVQLQLFKLYHNEVEIEKLNKELASKNKEIEKDKKRMDKVEDELKEKKKELGKMMREQQQIEKEIKEKDSELNQKRPQYIKAKENTSHKIKKLEAAKKSLQNAQKHYKKRKGDMDELEKEMLSVEKARQEFEERMEEESQSQGRDLTLEENQVKKYHRLKEEASKRAATLAQELEKFNRDQKADQDRLDLEERKKVETEAKIKQKLREIEENQKRIEKLEEYITTSKQSLEEQKKLEGELTEEVEMAKRRIDEINKELNQVMEQLGDARIDRQESSRQQRKAEIMESIKRLYPGSVYGRLIDLCQPTQKKYQIAVTKVLGKNMDAIIVDSEKTGRDCIQYIKEQRGEPETFLPLDYLEVKPTDEKLRELKGAKLVIDVIRYEPPHIKKALQYACGNALVCDNVEDARRIAFGGHQRHKTVALDGTLFQKSGVISGGASDLKAKARRWDEKAVDKLKEKKERLTEELKEQMKAKRKEAELRQVQSQAHGLQMRLKYSQSDLEQTKTRHLALNLQEKSKLESELANFGPRINDIKRIIQSREREMKDLKEKMNQVEDEVFEEFCREIGVRNIREFEEEKVKRQNEIAKKRLEFENQKTRLGIQLDFEKNQLKEDQDKVHMWEQTVKKDENEIEKLKKEEQRHMKIIDETMAQLQDLKNQHLAKKSEVNDKNHEMEEIRKKLGGANKEMTHLQKEVTAIETKLEQKRSDRHNLLQACKMQDIKLPLSKGTMDDISQEEGSSQGEESVSGSQRTSSIYAREALIEIDYGDLCEDLKDAQAEEEIKQEMNTLQQKLNEQQSVLQRIAAPNMKAMEKLESVRDKFQETSDEFEAARKRAKKAKQAFEQIKKERFDRFNACFESVATNIDEIYKALSRNSSAQAFLGPENPEEPYLDGINYNCVAPGKRFRPMDNLSGGEKTVAALALLFAIHSYKPAPFFVLDEIDAALDNTNIGKVANYIKEQSTCNFQAIVISLKEEFYTKAESLIGVYPEQGDCVISKVLTFDLTKYPDANPNPNEQ
- binding: binds

From article doi:10.1101/2025.06.19.657327
